These results are taken from paper PMC4099368.

Chains of the proteins cited; added tags and fusions are not shown. Residues count along the entry.
UniProt P43694, residues 200-254: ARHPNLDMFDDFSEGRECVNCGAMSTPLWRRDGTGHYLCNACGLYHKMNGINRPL

For experiment [1], the target named is T1, GST-ZFPM2/FOG2 p.I227V (human) (UniProt Q8WW38).
T1 sequence: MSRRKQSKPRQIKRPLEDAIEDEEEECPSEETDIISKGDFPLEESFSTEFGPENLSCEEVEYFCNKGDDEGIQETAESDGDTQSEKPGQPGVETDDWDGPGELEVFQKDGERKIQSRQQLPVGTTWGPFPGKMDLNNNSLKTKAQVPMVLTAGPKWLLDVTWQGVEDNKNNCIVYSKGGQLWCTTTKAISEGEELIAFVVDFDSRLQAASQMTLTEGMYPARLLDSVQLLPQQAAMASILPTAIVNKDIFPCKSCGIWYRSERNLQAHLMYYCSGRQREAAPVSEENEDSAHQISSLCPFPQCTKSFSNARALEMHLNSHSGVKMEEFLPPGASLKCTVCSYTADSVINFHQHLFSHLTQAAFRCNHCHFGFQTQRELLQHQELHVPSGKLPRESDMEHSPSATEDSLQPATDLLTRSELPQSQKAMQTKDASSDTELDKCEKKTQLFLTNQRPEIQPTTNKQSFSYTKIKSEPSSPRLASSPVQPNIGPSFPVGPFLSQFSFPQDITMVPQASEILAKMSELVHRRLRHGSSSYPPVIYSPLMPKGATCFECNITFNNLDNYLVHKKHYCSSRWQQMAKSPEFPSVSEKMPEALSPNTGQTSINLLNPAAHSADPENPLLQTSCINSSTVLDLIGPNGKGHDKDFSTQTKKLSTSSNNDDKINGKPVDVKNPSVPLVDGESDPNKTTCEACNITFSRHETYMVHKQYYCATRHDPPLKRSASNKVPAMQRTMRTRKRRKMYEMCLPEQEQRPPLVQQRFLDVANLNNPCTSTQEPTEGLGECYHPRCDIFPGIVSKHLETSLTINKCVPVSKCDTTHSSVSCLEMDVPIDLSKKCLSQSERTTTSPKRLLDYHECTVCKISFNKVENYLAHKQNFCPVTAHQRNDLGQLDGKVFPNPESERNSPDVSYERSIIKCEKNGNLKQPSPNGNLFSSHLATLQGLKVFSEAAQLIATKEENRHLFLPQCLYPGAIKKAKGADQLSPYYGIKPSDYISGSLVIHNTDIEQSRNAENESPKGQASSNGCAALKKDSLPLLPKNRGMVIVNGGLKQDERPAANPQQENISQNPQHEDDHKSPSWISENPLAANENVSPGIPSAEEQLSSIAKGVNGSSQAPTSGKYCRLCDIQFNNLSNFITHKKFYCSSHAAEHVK
Kind of experiment: pull-down; GST-ZFPM2/FOG2 (wild type or mutant) bound to 200 µl glutathione resin (Pierce GST Protein Interaction Pull-Down kit), incubated with GATA4 fragment at 4°C; washed with 25 mM Tris-HCl pH 7.2, 150 mM NaCl; eluate on SDS-PAGE, Coomassie staining.

Experiment [2] deals with T2, GST-ZFPM2/FOG2 p.K737E (human) (UniProt Q8WW38).
T2 sequence: T1 sequence with V227I, K737E
The description is as above.

Positions count from the first letter of the chain named. Results are given in words; binding and its absence hold for the method and conditions named. In cells and extracts the contact can be indirect. Some entries that bind do so weakly or less than the wild type. Where a sequence is shown, tags or fusion partners need not be part of it.

Regarding “N-terminal zinc-finger sequence of GATA4 (residues 200-254) (from UniProt P43694 200-254) (domain or fragment)”, the binding entry in experiment [1] and in experiment [2] was “binds” each time.
